Like-named read-outs stand apart in the source and are kept apart here.
Key:
[1] = system: Hep3B human hepatoma cell line; assay: cells; type: cell-based; settings: 48 h, read-out: IC50 Calcein AM
[2] = system: Hep3B human hepatoma cell line; assay: cells; type: cell-based; settings: 48 h, read-out: IC50 mBCl
2D = settings: read-out: IC50 2D (literature review); cited from earlier work
[3] = system: Hep3B human hepatoma cell line; assay: cells; type: cell-based; settings: 48 h, read-out: IC50 Hoechst

## CC/C(=C(\c1ccccc1)c1ccc(OCCN(C)C)cc1)c1ccccc1 [Tamoxifen]
[1]
  IC50: 57 ± 4.3 µM
[2]
  IC50: 83 ± 18.5 µM
2D
  IC50: 45 µM
[3]
  IC50: 102 ± 6.2 µM

Reference: PMC6347521 (Current protocols in toxicology, 2018)
